Reference: patent US20190224274
No signal at the amounts used counts as a negative. Weaker means in comparison with the reference protein, sequence or condition of that experiment.

Amino acid sequences for entries named in this document (tags omitted). A change or cut given only in a name is not applied to a line headed by its entry.
UniProt P14174: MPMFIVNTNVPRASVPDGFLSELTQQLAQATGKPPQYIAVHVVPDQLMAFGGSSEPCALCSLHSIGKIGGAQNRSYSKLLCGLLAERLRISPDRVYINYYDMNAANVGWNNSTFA

How the values were obtained:
[1] = target: MIF (Homo sapiens) (UniProt P14174); test: EMSA; details: 10 mM Mg2+, purified recombinant protein, protein details: GST tag removed (pGex-6P-1), label: 5' biotin, single-stranded DNA
[2] = target: MIF (Homo sapiens) (UniProt P14174); test: enzyme reaction in vitro; details: purified recombinant protein, protein details: GST tag removed (pGex-6P-1)
[3] = endo Y, exo Y, label: 5' biotin, single-stranded DNA, variant of PS30

Row | Sequence | activity on this sequence [2, 3] | other results
1 | AAAAAAAAAAAAAAAAAAAAAAAAAAAAAA [PA30] | – | binding result [1]: no binding
2 | AAAAAAAAAACAAGTAGCTGGGATTACAGG [3F1] | – | activity on this sequence ([2]; endo Y, exo Y, 29 nt product, label: 5' biotin, single-stranded DNA, variant of …): active
3 | AAAAAAACTCAGCCTCCCAAGTAGCTGGGA [3'bLF] | – | activity on this sequence ([2]; endonuclease cleavage at 3' end, label: 3' biotin, single-stranded DNA, variant of LF): active
4 | AAAAATCTCAGCCTCCCAAGTAGCTGGGAT [m20] | active | –
5 | AAAAGCCTCCCAAGTAGCTGGGATTACAGG [m7] | active | –
6 | ACCTAAATGCTAGAGCTCGCTGATCAGCCT (double strand) [dsL3] | – | activity on this sequence ([2]; 1-4 uM MIF, not cleaved, label: 5' biotin, variant of L3): not active
7 | ACCTAAATGCTAGAGCTCGCTGATCAGCCT [L3] | – | activity on this sequence ([2]; endo Y, exo Y, less efficient than PS30, label: 5' biotin, single-stranded DNA): less active; binding result ([1]; much lower than PS30): binds more weakly
8 | CAAGTAGCTGCTCAGCCTCCGGATTACAGG [m9] | active | –
9 | CCTGTAATCCCAAGTAGCTGGGATTACAGG [3'bSL] | – | activity on this sequence ([2]; endonuclease cleavage at 3' end, label: 3' biotin, single-stranded DNA, variant of SL): active
10 | CCTGTAATCCCAAGTAGCTGGGATTACAGG [SL] | – | binding result ([1]; variant of PS30): binds more weakly
11 | CTCAAAAAAACAAGTAGCTGGGATTACAGG [m6] | active | –
12 | CTCAAAATCCCAAAAAAAAGGGATTACAGG [m8] | active | –
13 | CTCAAAATCCCAAGTAGCTGGGATTACAGG [m17] | active | –
14 | CTCAATTTCCCAAGTAGCTGGGATTACAGG [m18] | active | –
15 | CTCAGCCAAAAAAATAGCTGGGATTACAGG [m4] | active | –
16 | CTCAGCCTCCAAAAAAAAAAGGATTACAGG [m2] | active | –
17 | CTCAGCCTCCCAAAAAAAAGGGATTACAGG [m5] | active | –
18 | CTCAGCCTCCCAAGTAAAAGGGATTACAGG [m11] | active | –
19 | CTCAGCCTCCCAAGTAAACGGGATTACAGG [m14] | active | –
20 | CTCAGCCTCCCAAGTAAATGGGATTACAGG [m12] | active | –
21 | CTCAGCCTCCCAAGTAGCAGGGATTACAGG [m15] | active | –
22 | CTCAGCCTCCCAAGTAGCTGAAAAAAAAAA [m3] | active | –
23 | CTCAGCCTCCCAAGTAGCTGGGATTACAGG (double strand) [dsPS30] | – | activity on this sequence ([2]; 1-4 uM MIF, not cleaved, label: 5' biotin, variant of PS30): not active
24 | CTCAGCCTCCCAAGTAGCTGGGATTACAGG / TCCCAGCTACTTGGGAGGCTGAG [3E] | – | activity on this sequence ([2]; endo N, exo Y, label: 5' biotin, variant of PS30): active
25 | CTCAGCCTCCCAAGTAGCTGGGATTACAGGTAAACTTGGT [PS40] | active | –
26 | CTCAGCCTCCCTTGTAGCTGGGATTACAGG [m16] | active | –
27 | CTCAGCCTCCGGATTACAGGCAAGTAGCTG [m10] | active | –
28 | TCCCAAGTAGCTGGGATTACAGGAAAAAAA (double strand) [dsRF] | – | activity on this sequence ([2]; 1-4 uM MIF, not cleaved, label: 5' biotin, variant of RF): not active
29 | TCCCAAGTAGCTGGGATTACAGGAAAAAAA [RF] | active | binding result ([1]; low efficiency, variant of PS30): binds more weakly
30 | TGGGATTACAGGCGTGAGCCACCACGCCC [BS2] | – | activity on this sequence ([2]; endo Y, exo Y, label: 5' biotin, single-stranded DNA): active
